# Reference: PubChem BioAssay AID504444 (National Center for Advancing Translational Sciences (NCATS), 2011)
# Out of some 360,000 compounds screened, about 7,500 (2.1%) were called active. Inconclusive means that the source gave no clear call. Such entries were picked first, then a sample of the others. Calls come from the whole dose curve; as a rule, active = well fitted inhibition curve with a large enough effect; inconclusive = small, poorly fitted or top-dose-only effect, or effect the other way; inactive = flat fitted curve, though single readings scatter. Where the call is inconclusive, the potency comes from a doubtful curve fit.
# Experiment: Nrf2 qHTS screen for inhibitors; note: nearly all actives have a fitted effect of over 60% in size
# Details: A549 ARE-Fluc reporter, luciferase luminescence, 18-24 h; series mostly up to 46 µM
# In short: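 Nrf2 activity is the BugLite luminescence, read 15 min after reagent at room temperature, following CellTiter-Fluor cytotoxicity readout (30 min, 37C). Compound titrations were applied for 18-24 h to 5000 A549 ARE_Fluc cells/well in 5% FBS OPTI-MEM.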
# Potency is the fitted concentration of half-maximal effect.
row,Compound,Potency
1,COc1ccc(CCNC(=O)C(=O)NCC2OCCN2S(=O)(=O)c2ccc(C)cc2)cc1OC (stereo unspecified),"inconclusive: 14.6 µM [falling, partial curve]"
2,Cc1nc(N2CCC(C)CC2)c2c(C)c(C(=O)Nc3ccc(C(F)(F)F)cc3)sc2n1,active: 20.6 µM
3,Cc1nc(N)[nH]c(=O)c1CCCNc1ccc(CCCCC2(CCl)OCCO2)cc1,"inconclusive: 29.1 µM [falling, single point]"
4,Clc1ccc(-c2nc3ccccc3n2OCc2ccccc2)cc1,"inconclusive: 20.6 µM [falling, partial curve, poor fit]"
5,Cc1cccc(C)c1NC(=O)CNC(=O)c1ccc(COc2ccccc2)cc1,inactive
6,CC(=O)N(C)c1ccc(NC(=S)Nc2cccc3ccccc23)cc1,"inconclusive: 25.9 µM [activator, single point]"
7,CSc1ccccc1NC(=O)CN(C)Cc1cccc(Cl)c1,"inconclusive: 20.6 µM [falling, partial curve]"
8,COc1ccccc1N1CCN(C(=O)CSc2ccc3c(C)cc(C)nc3n2)CC1,"inconclusive: 6.51 µM [falling, partial curve, poor fit]"
9,Cn1c(C(=O)Nc2ccc(OC(F)(F)F)cc2)cc2c(=O)n3ccccc3nc21,"inconclusive: 14.6 µM [falling, partial curve, poor fit]"
10,COc1ccccc1CNC(=O)c1nnn(CC(=O)Nc2c(C)cccc2C)c1N,"inconclusive: 5.8 µM [activator, full curve]"
11,COc1cccc(NC(=O)Nc2cc(C(=O)NC(C)C)ccc2N2CC3CC(C2)c2cccc(=O)n2C3)c1 (stereo unspecified),inactive
12,COc1ccccc1NC(=S)N/N=C/c1ccc(O)cc1,"inconclusive: 1.3 µM [activator, single point]"
13,CCOC(=O)c1ccc(NS(=O)(=O)c2ccc3c(c2)oc(=O)n3C)cc1,"inconclusive: 29.1 µM [falling, single point]"
14,Cn1c(N)c(-c2ccccc2)c2ccc([N+](=O)[O-])cc2c1=O,"inconclusive: 16.4 µM [falling, single point]"
15,CN(C)S(=O)(=O)N1CCc2ccc(NC(=O)c3ccc(C(F)(F)F)cc3)cc2C1,"inconclusive: 18.4 µM [falling, partial curve]"
16,O=C(CSc1nnc(NC(=O)C2CC2)s1)Nc1ccc(F)cc1F,"inconclusive: 23.1 µM [falling, single point]"
17,COc1ccc(CNC(=O)CN(C(=O)c2csnn2)c2ccccc2F)cc1,"inconclusive: 18.4 µM [activator, partial curve, poor fit]"
18,COc1ccc(CCNC(=S)N2CCC(Cc3ccccc3)CC2)cc1OC,"inconclusive: 29.1 µM [falling, single point]"
19,CCc1ccc(NCc2cc3ccc(OC)cc3n(CC(=O)Nc3ccc(C)c(Cl)c3)c2=O)cc1,inactive
20,Cc1ccc(-c2cc(C(F)F)nc(NCc3cccnc3)n2)cc1,"inconclusive: 29.1 µM [falling, single point]"
21,Cc1ccc2cccc(S(=O)(=O)N3CCCc4ccccc43)c2n1,"inconclusive: 18.4 µM [falling, single point]"

# Quoted from the listing:
# For Potency, COc1ccccc1NC(=S)N/N=C/c1ccc(O)cc1 has the entry inconclusive: 1.3 µM [activator, single point]
# For Potency, O=C(CSc1nnc(NC(=O)C2CC2)s1)Nc1ccc(F)cc1F has the entry inconclusive: 23.1 µM [falling, single point]
# For Potency, Cn1c(N)c(-c2ccccc2)c2ccc([N+](=O)[O-])cc2c1=O has the entry inconclusive: 16.4 µM [falling, single point]

# (list continues)

row,Compound,Potency
1,Cc1ccc(-c2nnn(CC(=O)N(CC(=O)NCc3ccccc3)c3cccc(C)c3C)n2)o1,"inconclusive: 25.9 µM [falling, single point]"
2,OCCn1cnc2c(SCc3ccccc3)ncnc21,"inconclusive: 25.9 µM [activator, single point]"
3,O=C(CN1C(=O)COc2ccc(S(=O)(=O)N3CCOCC3)cc21)N1CCN(c2ccccc2F)CC1,inactive
4,O=c1[nH]c2cc3c(cc2cc1C(c1nnnn1CC1CCCO1)N1CCCC1)OCO3 (stereo unspecified),inactive
5,COc1ccc(-c2noc(CCC(=O)N3CCN(c4ccccc4C)CC3)n2)cc1,"inconclusive: 29.1 µM [falling, single point]"
6,Cc1cc([N+](=O)[O-])ccc1NC(=O)/C=C/c1cccs1,"inconclusive: 10.3 µM [activator, partial curve, poor fit]"
7,CC(C)=C1SC(N2CCN(c3cccc(Cl)c3)CC2)=NC1=O,"inconclusive: 20.6 µM [falling, partial curve]"
8,COc1ccc(/C=C2\SC(=O)N(CC(=O)NN3CCN(C)CC3)C2=O)cc1OC,"inconclusive: 20.6 µM [activator, single point]"
9,Nc1nc2ncc(CNc3ccc(C(=O)N[C@@H](CCC(=O)O)C(=O)O)cc3)nc2c(=O)[nH]1,"inconclusive: 11.6 µM [falling, partial curve, poor fit]"
10,Cc1ccc2c(c1)cc(CN(Cc1ccco1)C(=O)N1CCOCC1)c1nnnn12,"inconclusive: 13 µM [activator, partial curve]"
11,N#Cc1c(NC(=S)NC(=O)C2CCCC2)sc2c1CCCCC2,"inconclusive: 18.4 µM [falling, partial curve, poor fit]"
12,COc1ccccc1N1CCN(C(=O)c2cc(C)oc2C)CC1,"inconclusive: 20.6 µM [falling, single point]"
13,CCOc1nc(C#N)nc(N2CCOCC2)n1,inactive
14,Cc1nc2ccc(S(=O)(=O)NCC(=O)Nc3cccc(F)c3)cc2s1,"inconclusive: 1.3 µM [falling, full curve, poor fit]"
15,O=C(NCCCO)c1nn(-c2ccc(Cl)cc2)nc1CO,inactive
16,Cc1cccc(C)c1NC(=O)COC(=O)c1cc[n+]([O-])cc1,"inconclusive: 20.6 µM [activator, single point]"
17,Cc1ccc(NS(=O)(=O)c2cccc(C(=O)N3CCN(C(=O)c4ccco4)CC3)c2)cc1,"inconclusive: 11.6 µM [falling, partial curve, poor fit]"
18,COc1ccc(S(=O)(=O)NCc2ccc(C(=O)N3CCN(Cc4ccccc4)CC3)cc2)cc1,"inconclusive: 20.6 µM [falling, partial curve]"
19,S=c1[nH]cnc2scc(-c3ccc(Cl)cc3)c12,"inconclusive: 29.1 µM [falling, single point]"
20,O=C(Nc1cccnc1)Nc1ccc(Br)cc1Cl,"inconclusive: 18.4 µM [falling, single point]"
